Results are given in words; binding and its absence hold for the method and conditions named. Binding seen in cells or lysates may run through a third protein. Some entries that bind do so weakly or less than the wild type. For some of these results: Where a sequence is shown, tags or fusion partners need not be part of it.
T1: IL-4Rα (IL-4 receptor alpha), endogenous mouse (mouse (endogenous in MEFs and murine BMDMs)) (UniProt P16382)
T1 sequence: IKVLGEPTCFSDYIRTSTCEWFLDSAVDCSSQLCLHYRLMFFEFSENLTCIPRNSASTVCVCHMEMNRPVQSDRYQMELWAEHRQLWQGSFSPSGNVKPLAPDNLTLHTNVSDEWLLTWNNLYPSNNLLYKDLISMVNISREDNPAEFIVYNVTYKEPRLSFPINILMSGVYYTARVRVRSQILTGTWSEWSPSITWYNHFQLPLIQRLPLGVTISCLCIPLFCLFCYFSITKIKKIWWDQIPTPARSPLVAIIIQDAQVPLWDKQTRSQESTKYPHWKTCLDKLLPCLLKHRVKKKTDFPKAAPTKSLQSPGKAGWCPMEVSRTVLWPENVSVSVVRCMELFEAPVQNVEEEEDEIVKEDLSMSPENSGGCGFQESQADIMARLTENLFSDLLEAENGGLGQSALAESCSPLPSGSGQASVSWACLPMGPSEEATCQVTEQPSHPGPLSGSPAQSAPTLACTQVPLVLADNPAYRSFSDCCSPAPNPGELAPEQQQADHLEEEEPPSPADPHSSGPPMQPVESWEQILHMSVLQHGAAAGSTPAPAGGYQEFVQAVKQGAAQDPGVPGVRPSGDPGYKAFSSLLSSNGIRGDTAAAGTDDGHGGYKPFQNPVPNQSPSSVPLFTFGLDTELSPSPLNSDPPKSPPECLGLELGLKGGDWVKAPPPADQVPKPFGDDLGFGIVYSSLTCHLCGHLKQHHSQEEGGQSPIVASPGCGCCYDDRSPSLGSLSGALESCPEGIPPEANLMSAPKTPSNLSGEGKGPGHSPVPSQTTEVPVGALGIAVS

Amino acid sequences for entries named in this document (tags omitted).
UniProt Q9DC51: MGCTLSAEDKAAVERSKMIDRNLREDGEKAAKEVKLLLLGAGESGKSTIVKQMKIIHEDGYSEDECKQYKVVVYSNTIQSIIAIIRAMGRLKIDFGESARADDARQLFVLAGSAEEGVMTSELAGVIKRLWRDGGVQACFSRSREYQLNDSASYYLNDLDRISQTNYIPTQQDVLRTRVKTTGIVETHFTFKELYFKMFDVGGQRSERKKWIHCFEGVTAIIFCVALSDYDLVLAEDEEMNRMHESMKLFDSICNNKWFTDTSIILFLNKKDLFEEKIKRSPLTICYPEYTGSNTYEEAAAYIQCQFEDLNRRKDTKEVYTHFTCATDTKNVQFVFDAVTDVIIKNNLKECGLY
UniProt P52332: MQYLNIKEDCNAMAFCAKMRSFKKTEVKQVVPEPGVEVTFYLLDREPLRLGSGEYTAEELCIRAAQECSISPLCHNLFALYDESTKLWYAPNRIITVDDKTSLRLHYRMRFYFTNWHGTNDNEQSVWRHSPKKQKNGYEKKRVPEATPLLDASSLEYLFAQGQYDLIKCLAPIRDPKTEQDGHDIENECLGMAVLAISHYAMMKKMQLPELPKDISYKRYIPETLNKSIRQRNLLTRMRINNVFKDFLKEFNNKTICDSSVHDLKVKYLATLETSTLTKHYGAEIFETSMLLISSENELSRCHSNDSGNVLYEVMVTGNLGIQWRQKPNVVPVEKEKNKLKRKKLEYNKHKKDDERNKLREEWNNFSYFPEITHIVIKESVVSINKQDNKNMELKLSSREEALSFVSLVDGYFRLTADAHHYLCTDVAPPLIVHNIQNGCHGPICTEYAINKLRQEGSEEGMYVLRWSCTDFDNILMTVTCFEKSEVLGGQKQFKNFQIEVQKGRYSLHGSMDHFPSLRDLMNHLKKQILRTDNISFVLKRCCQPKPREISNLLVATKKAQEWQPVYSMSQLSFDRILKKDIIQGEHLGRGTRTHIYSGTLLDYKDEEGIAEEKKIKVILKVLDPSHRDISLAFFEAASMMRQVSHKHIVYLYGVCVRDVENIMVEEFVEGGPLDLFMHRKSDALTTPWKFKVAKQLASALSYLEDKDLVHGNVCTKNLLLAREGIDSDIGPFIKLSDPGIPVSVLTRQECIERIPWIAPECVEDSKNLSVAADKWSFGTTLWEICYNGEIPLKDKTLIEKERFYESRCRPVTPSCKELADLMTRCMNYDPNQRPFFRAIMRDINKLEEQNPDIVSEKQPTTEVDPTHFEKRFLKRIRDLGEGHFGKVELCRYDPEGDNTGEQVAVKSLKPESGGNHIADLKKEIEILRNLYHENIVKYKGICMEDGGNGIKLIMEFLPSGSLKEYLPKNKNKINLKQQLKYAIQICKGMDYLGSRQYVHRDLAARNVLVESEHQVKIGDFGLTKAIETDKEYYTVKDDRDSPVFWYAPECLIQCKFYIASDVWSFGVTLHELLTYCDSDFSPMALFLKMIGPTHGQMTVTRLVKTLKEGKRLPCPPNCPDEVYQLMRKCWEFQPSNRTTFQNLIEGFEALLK
UniProt B2RSH2: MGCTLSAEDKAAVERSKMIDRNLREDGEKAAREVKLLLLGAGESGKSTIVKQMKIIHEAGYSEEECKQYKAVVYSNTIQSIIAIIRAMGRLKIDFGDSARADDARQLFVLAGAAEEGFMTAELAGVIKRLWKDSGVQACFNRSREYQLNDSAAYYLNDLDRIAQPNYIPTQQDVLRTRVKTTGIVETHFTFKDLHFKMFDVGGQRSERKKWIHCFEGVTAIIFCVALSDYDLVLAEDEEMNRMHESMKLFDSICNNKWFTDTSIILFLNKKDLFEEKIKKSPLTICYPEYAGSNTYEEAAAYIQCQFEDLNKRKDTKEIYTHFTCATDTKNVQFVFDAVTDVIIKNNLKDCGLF

T2: IL-4Rα-WT-Flag (full-length mIL-4Rα fused with Flag) (mouse) (UniProt P16382)
T2 sequence: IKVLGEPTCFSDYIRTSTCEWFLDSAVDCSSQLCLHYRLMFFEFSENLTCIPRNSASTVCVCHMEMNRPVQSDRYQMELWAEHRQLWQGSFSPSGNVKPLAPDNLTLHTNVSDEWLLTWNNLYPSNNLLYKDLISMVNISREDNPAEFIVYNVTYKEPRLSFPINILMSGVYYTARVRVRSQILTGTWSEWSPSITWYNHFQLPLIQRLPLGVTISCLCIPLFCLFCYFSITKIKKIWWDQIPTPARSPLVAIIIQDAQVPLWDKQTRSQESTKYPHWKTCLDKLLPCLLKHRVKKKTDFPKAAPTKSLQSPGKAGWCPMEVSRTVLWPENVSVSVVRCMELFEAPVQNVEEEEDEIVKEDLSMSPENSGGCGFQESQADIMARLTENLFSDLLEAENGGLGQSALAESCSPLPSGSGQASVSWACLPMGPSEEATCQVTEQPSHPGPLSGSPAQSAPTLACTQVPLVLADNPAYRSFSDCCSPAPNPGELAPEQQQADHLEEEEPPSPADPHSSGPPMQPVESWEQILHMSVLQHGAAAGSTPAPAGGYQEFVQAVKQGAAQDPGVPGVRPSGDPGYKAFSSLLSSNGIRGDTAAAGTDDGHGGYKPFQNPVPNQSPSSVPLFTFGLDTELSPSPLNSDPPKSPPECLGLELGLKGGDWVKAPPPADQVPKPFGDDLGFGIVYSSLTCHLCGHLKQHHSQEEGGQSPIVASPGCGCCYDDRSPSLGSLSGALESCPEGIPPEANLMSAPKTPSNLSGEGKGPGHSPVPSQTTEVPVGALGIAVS


Key:
[1] = target: T1, IL-4Rα (IL-4 receptor alpha), endogenous mouse (mouse (endogenous in MEFs and murine BMDMs)); experiment: co-IP; endogenous proteins in WT and Gαi1/3 DKO MEFs treated with IL-4 (Figure S1H); protocol as in earlier studies
[2] = target: T2, IL-4Rα-WT-Flag (full-length mIL-4Rα fused with Flag) (mouse); experiment: co-IP; IP: Flag; IL-4Rα-KO BMDMs stably expressing IL-4Rα-WT-Flag or IL-4Rα-ΔIC-Flag, treated with IL-4 (100 ng/mL)
[3] = target: T1, IL-4Rα (IL-4 receptor alpha), endogenous mouse (mouse (endogenous in MEFs and murine BMDMs)); experiment: co-IP; endogenous proteins in primary murine BMDMs treated with IL-4 (100 ng/mL, 5 min in Figure 1A); IP: IL-4Rα in Figure 2G, BMDMs with empty vector or dn-Gαi1/3
[4] = target: T1, IL-4Rα (IL-4 receptor alpha), endogenous mouse (mouse (endogenous in MEFs and murine BMDMs)); experiment: as above; remark: listed apart in the source

Molecule	binding [1]	binding [2]	binding [3]	binding [4]
Gαi3, endogenous mouse (from UniProt Q9DC51 1-354)		binds	binds	
APPL1 (adaptor containing a pleckstrin homology (PH) domain, phosphotyrosine-binding (PTB) domain, and leucine zipper motif 1), endogenous mouse (protein, UniProt Q8K3H0 1-707) MPGIDKLPIEETLEDSPQTRSLLGVFEEDATAISNYMNQLYQAMHRIYDAQNELSAATHLTSKLLKEYEKQRFPLGGDDEVMSSTLQQFSKVIDELSSCHAVLSTQLADAMMFPISQFKERDLKEILTLKEVFQIASNDHDAAINRYSRLSKKRENDKVKYEVTEDVYTSRKKQHQTMMHYFCALNTLQYKKKIALLEPLLGYMQAQISFFKMGSENLNGQLEEFLANIGTSVQNVRREMDGDVETMQQTIEDLEVASDPLYLPDPDPTKFPINRNLTRKAGYLNARNKTGLVSSTWDRQFYFTQGGNLMSQARGDVAGGLAMDIDNCSVMAVDCEDRRYCFQITSFDGKKSSILQAESKKDHEEWICTINNISKQIYLSENPEETAARVNQSALEAVTPSPSFQQRHESLRPGGQSRPPTARTSSSGSLGSESTNLAALSLDSLVAPDTPIQFDIISPVCEDQPGQAKAFGQGGRRTNPFGESGGSTKSETEDSILHQLFIVRFLGSMEVKSDDHPDVVYETMRQILAARAIHNIFRMTESHLLVTCDCLKLIDPQTQVTRLTFPLPCVVLYATHQENKRLFGFVLRTSGGRSESNLSSVCYIFESNNEGEKICDSVGLAKQIALHAELDRRASEKQKEIERVKEKQQKELSKQKQIEKDLEEQSRLIAASSRPNQAGSEGQLVLSSSQSEESDLGEEGKKRESEA		binds		binds

Further lines, results first:

binding [1]	binding [2]	binding [3]	binding [4]	Molecule
binds				JAK1, endogenous mouse (from UniProt P52332 1-1153) (enzyme)
	binds	binds		Gαi1, endogenous mouse (from UniProt B2RSH2 1-354)

Source: paper PMC7978294
